Not every detail of the peptide structures is certain; ends, links or a residue may be inferred. Some entries share one result that the patent states for a list of compounds. Square brackets hold non-standard residues; d marks the D form. Ends that are not written are not given here. Peptide text beside a SMILES is read from it.
Key:
[1] = system: pre-formed C. albicans biofilms; assay: XTT viability assay on pre-formed biofilms; type: cell-based, Candida albicans; conditions: for reduction in biofilm viability: all fungal strains (CA494, MYA 2876, CA 2519, CA 526, ATCC 64124)
[2] = system: MYA 2876 C. albicans biofilms; assay: Confocal microscopy of treated biofilms (propidium iodide, SYTO 9, Calcofluor White); type: cell-based, Candida albicans; conditions: 500 μg/mL, 24 hours
[3] = system: planktonic C. albicans MYA 2876; assay: Time-kill CFU assay on planktonic cultures; type: cell-based, Candida albicans
human red blood cells = assay: Hemolysis assay; type: cell-based; conditions: 200 μg/mL, 1 hour at 37° C., normalized to Triton X-100
Protocol: The hemolytic activity of BmKn2, dBmKn2, Kn2-7, dKn2-7, and melittin was assessed using human red blood cells (RBCs). The RBCs were prepared from human whole blood (BioreclamationIVT, Westbury, N.Y., USA) according to a previous report (Evans et al, J. Vis. Exp. (73), 50166, doi:10.3791/50166 (2013)). In brief, human whole blood was centrifuged, and the RBCs were washed with PBS 3-4 times and then diluted 1:20 of the original volume in PBS. Peptides at various concentrations from 0-400 μg/mL in PBS were mixed with an equal volume of the diluted RBCs in a 96-well microtiter plate and allowed to incubate for 1 hour at 37° C. The plate was then centrifuged at 500 g for 5 minutes and 100 μL of the supernatant was transferred to a 96-well, transparent, flat-bottomed plate. Sample absorbances were read at 490 nm using a BioTek Synergy HT plate reader (BioTek, Winooski, Vt.). PBS was used as a negative control (blank), and 1% Triton X-100 was used as a positive control for 100% hemolysis. The percent hemolysis for the unknown samples was calculated according to the following equation: […]

[4] = system: MYA 2876 C. albicans cells; assay: Time-dependent calcein AM release (cell lysis); type: cell-based, Candida albicans; conditions: 3.13 μg/mL versus 100 μg/mL in PBS, over 8 hours

Row | Compound | reduction in biofilm viability ([1]; 24 hours after treatment) [%] | biofilm viability by confocal staining [2] | time-kill result in RPMI 1640 ([3]; 0, 3.13, 25, 100 μg/mL in RPMI 1640, 0-4 hours) | reduction in CFUs ([3]; 3.13 μg/mL in PBS, 24-hour time-point, controls showed the same) [log] | CFUs after treatment ([3]; 100 μg/mL in PBS, after 60 minutes) | hemolytic rates (human red blood cells) | biofilm metabolic activity (XTT) ([1]; 500 μg/mL) | higher efficacy against the fungal biofilms compared to the other three peptides ([1]; 24 hours after treatment) [fold] | calcein AM release, concentration pattern [4]
1 | CC[C@@H](C)[C@@H](NC(=O)[C@H](N)Cc1ccccc1)C(=O)NCC(=O)N[C@H](C)C(=O)N[C@@H](C(=O)N[C@H](C)C(=O)N[C@H](CCCNC(=N)N)C(=O)N[C@H](CC(C)C)C(=O)N[C@H](CC(C)C)C(=O)N[C@H](CO)C(=O)N[C@H](CCCCN)C(=O)N[C@@H](C(=O)N[C@H](Cc1ccccc1)C(=O)O)[C@H](C)CC)[C@H](C)CC [dBmKn2] (H-[dF][dI]G[dA][dI][dA][dR][dL][dL][dS][dK][dI][dF]-OH; N-terminus and C-terminus assumed) | 100 |  |  |  |  |  |  |  | 
2 | CC[C@@H](C)[C@@H](NC(=O)[C@H](N)Cc1ccccc1)C(=O)N[C@H](CCCCN)C(=O)N[C@H](CCCNC(=N)N)C(=O)N[C@@H](C(=O)N[C@H](C)C(=O)N[C@H](CCCNC(=N)N)C(=O)N[C@H](CC(C)C)C(=O)N[C@H](CC(C)C)C(=O)N[C@H](CCCNC(=N)N)C(=O)N[C@H](CCCCN)C(=O)N[C@@H](C(=O)N[C@H](Cc1ccccc1)C(=O)O)[C@H](C)CC)[C@H](C)CC [dKn2-7] (H-[dF][dI][dK][dR][dI][dA][dR][dL][dL][dR][dK][dI][dF]-OH; N-terminus and C-terminus assumed) | 100 | killed the pre-formed biofilm | fungicidal activity | 1 | no CFUs were detected | 12-13% | metabolically inactive | ≤ 4 | higher and more rapid release of calcein AM occurred at the lower concentration
3 | FIKRIARLLRKIF [Kn2-7, FIKRIARLLRKIF (SEQ ID NO. 2)] |  |  |  |  |  | 12-13% |  |  | 
